Values of other authors in patent publication US20140172387A1, “PREDICTION OF MOLECULAR BIOACTIVATION” (Genentech, Inc., priority 2012, published 2014).
Some of these results come from one statement about several compounds together.

SMILES: O=CCCl [chloroacetaldehyde (3), chloroacetaldehyde]
- water solubility (experimentally-derived): ≥ 100 mg/mL
